In PMC5538744:
No constants are given. Whether binding was seen depends on the method and setting. Where a sequence is shown, tags or fusion partners need not be part of it.

Molecular target: T1, SGS3 fused to the GAL4 DNA binding domain (pGBKT7) (Arabidopsis thaliana (AtSGS3)) (UniProt Q9LDX1)
T1 sequence: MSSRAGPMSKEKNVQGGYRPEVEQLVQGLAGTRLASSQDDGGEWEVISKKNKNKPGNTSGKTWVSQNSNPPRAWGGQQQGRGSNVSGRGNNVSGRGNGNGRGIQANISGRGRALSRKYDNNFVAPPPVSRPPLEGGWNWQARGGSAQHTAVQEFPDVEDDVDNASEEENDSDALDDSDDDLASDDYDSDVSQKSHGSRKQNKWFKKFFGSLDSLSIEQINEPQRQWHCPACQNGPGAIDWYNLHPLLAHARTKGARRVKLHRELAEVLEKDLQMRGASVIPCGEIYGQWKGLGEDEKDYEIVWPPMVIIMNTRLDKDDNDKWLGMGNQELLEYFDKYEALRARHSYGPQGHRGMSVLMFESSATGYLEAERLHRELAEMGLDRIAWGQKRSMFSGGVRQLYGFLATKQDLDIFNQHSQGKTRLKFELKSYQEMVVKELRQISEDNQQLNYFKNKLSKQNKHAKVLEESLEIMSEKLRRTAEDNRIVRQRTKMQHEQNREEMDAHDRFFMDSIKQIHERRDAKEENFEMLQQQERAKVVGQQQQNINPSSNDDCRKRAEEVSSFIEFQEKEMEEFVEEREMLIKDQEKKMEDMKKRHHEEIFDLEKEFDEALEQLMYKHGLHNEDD
Experiment: two-hybrid; GAL4 system, SGS3 in pGBKT7 and CPs in pGADT7, yeast strain AH109, 30°C, media lacking Trp, Leu, His and Ade

Substance | binding
CP^WT fused to the GAL4 activation domain (pGADT7) (Cucumber mosaic virus (Fny strain)) | no binding
CP^RA fused to the GAL4 activation domain (pGADT7) (Cucumber mosaic virus (Fny strain)) | no binding
